Data: patent US20260151517A1, “SOMATOSTATIN RECEPTOR-TARGETING RADIOPHARMACEUTICALS AND USES THEREOF” (Nuclidium AG, priority 2024, published 2026)
Part of at least one peptide drawing is inferred or uncertain, most often the ends. *1 amine or outer side, *2 acyl side, *3 side chain or, on linkers, in order; H or OH if unused. Where a SMILES comes first, the peptide text is derived from it. Bridges are numbered along the chain shown (N, C = ends). [ ]: non-standard residue; d: D form. The star is where a group is joined. NODAGA = O=C(O)CN1CCN(CC(=O)O)CCN(C(CCC(=O)*)C(=O)O)CC1; X1 = NC(=O)Nc1ccc(CC(N[*:1])C(=O)[*:2])cc1; Phe(4-Cl) = N[CH](Cc1ccc(Cl)cc1)C(=O)O

Assay: Dosimetry calculations (OLINDA/EXM 1.0, mouse data extrapolated to human dose)
Conditions: for Alpha absorbed dose / Beta absorbed dose / Photon absorbed dose / Total Absorbed Doses: adult female phantom
[1] = extrapolated human dose from mouse data

With `CC(O)C1NC(=O)C(CCCCN)NC(=O)C(Cc2ccc(NC(N)=O)cc2)NC(=O)C(Cc2ccc(O)cc2)NC(=O)C(NC(=O)C(Cc2ccc(Cl)cc2)NC(=O)CCC(C(=O)O)N2CCN(CC(=O)O)CCN(CC(=O)O)CC2)CSSCC(C(=O)NC(Cc2ccc(O)cc2)C(N)=O)NC1=O` (stereo not shown) [[^61Cu]Cu-NODAGA-LM3, metal not drawn] ({NODAGA}-[Phe(4-Cl)]CY[X1]KTCY-NH2; disulfide 2-7; configuration not given here) the “gender differences in absorbed dose” value was “generally higher in males than in females”, the Alpha absorbed dose (Adrenals) was 0.00E+00 mGy/MBq and the Beta absorbed dose (Adrenals) was 1.50E−03 mGy/MBq. The Photon absorbed dose (Adrenals) was 3.89E−03 mGy/MBq, the “Total Absorbed Doses” value (Adrenals) was 5.39E−03 mGy/MBq and the Alpha absorbed dose (Brain) was 0.00E+00 mGy/MBq. For the same compound, the Beta absorbed dose (Brain) was 0.00E+00 mGy/MBq, the Photon absorbed dose (Brain) was 1.59E−05 mGy/MBq and the “Total Absorbed Doses” value (Brain) was 1.59E−05 mGy/MBq. It also gave an Alpha absorbed dose (Breasts) of 0.00E+00 mGy/MBq, a Beta absorbed dose (Breasts) of 0.00E+00 mGy/MBq and a Photon absorbed dose (Breasts) of 4.15E−04 mGy/MBq. The “Total Absorbed Doses” value (Breasts) was 4.15E−04 mGy/MBq, the Alpha absorbed dose (Gallbladder Wall) was 0.00E+00 mGy/MBq and the Beta absorbed dose (Gallbladder Wall) was 0.00E+00 mGy/MBq. For the same compound, the Photon absorbed dose (Gallbladder Wall) was 3.52E−03 mGy/MBq, the “Total Absorbed Doses” value (Gallbladder Wall) was 3.52E−03 mGy/MBq and the Alpha absorbed dose (Heart Wall) was 0.00E+00 mGy/MBq. The Beta absorbed dose (Heart Wall) was 9.73E−04 mGy/MBq, the Photon absorbed dose (Heart Wall) was 1.39E−03 mGy/MBq and the “Total Absorbed Doses” value (Heart Wall) was 2.37E−03 mGy/MBq. For the same compound, the Alpha absorbed dose (Kidneys) was 0.00E+00 mGy/MBq, the Beta absorbed dose (Kidneys) was 5.32E−02 mGy/MBq and the Photon absorbed dose (Kidneys) was 1.17E−02 mGy/MBq. For the same compound, the “Total Absorbed Doses” value (Kidneys) was 6.49E−02 mGy/MBq, the Alpha absorbed dose (LLI Wall) was 0.00E+00 mGy/MBq and the Beta absorbed dose (LLI Wall) was 0.00E+00 mGy/MBq. The Photon absorbed dose (LLI Wall) was 8.50E−04 mGy/MBq, the “Total Absorbed Doses” value (LLI Wall) was 8.50E−04 mGy/MBq and the Alpha absorbed dose (Liver) was 0.00E+00 mGy/MBq. The Beta absorbed dose (Liver) was 8.14E−03 mGy/MBq, the Photon absorbed dose (Liver) was 4.49E−03 mGy/MBq and the “Total Absorbed Doses” value (Liver) was 1.26E−02 mGy/MBq. For the same compound, the Alpha absorbed dose (Lungs) was 0.00E+00 mGy/MBq, the Beta absorbed dose (Lungs) was 2.61E−03 mGy/MBq and the Photon absorbed dose (Lungs) was 1.23E−03 mGy/MBq. For the same compound, the “Total Absorbed Doses” value (Lungs) was 3.85E−03 mGy/MBq, the Alpha absorbed dose (Muscle) was 0.00E+00 mGy/MBq and the Beta absorbed dose (Muscle) was 0.00E+00 mGy/MBq. The Photon absorbed dose (Muscle) was 7.08E−04 mGy/MBq, the “Total Absorbed Doses” value (Muscle) was 7.08E−04 mGy/MBq and the Alpha absorbed dose (Osteogenic Cells) was 0.00E+00 mGy/MBq. The Beta absorbed dose (Osteogenic Cells) was 4.77E−05 mGy/MBq, the Photon absorbed dose (Osteogenic Cells) was 5.77E−04 mGy/MBq and the “Total Absorbed Doses” value (Osteogenic Cells) was 6.25E−04 mGy/MBq. It also gave an Alpha absorbed dose (Ovaries) of 0.00E+00 mGy/MBq, a Beta absorbed dose (Ovaries) of 0.00E+00 mGy/MBq and a Photon absorbed dose (Ovaries) of 1.20E−03 mGy/MBq. The “Total Absorbed Doses” value (Ovaries) was 1.20E−03 mGy/MBq, the Alpha absorbed dose (Pancreas) was 0.00E+00 mGy/MBq and the Beta absorbed dose (Pancreas) was 8.79E−02 mGy/MBq. The Photon absorbed dose (Pancreas) was 1.50E−02 mGy/MBq, the “Total Absorbed Doses” value (Pancreas) was 1.03E−01 mGy/MBq and the Alpha absorbed dose (Red Marrow) was 0.00E+00 mGy/MBq. For the same compound, the Beta absorbed dose (Red Marrow) was 5.16E−05 mGy/MBq, the Photon absorbed dose (Red Marrow) was 9.35E−04 mGy/MBq and the “Total Absorbed Doses” value (Red Marrow) was 9.86E−04 mGy/MBq. The Alpha absorbed dose (Skin) was 0.00E+00 mGy/MBq, the Beta absorbed dose (Skin) was 0.00E+00 mGy/MBq and the Photon absorbed dose (Skin) was 2.98E−04 mGy/MBq. The “Total Absorbed Doses” value (Skin) was 2.98E−04 mGy/MBq, the Alpha absorbed dose (Small Intestine) was 0.00E+00 mGy/MBq and the Beta absorbed dose (Small Intestine) was 8.57E−03 mGy/MBq. The Photon absorbed dose (Small Intestine) was 2.51E−03 mGy/MBq, the “Total Absorbed Doses” value (Small Intestine) was 1.11E−02 mGy/MBq and the Alpha absorbed dose (Spleen) was 0.00E+00 mGy/MBq. The Beta absorbed dose (Spleen) was 2.14E−03 mGy/MBq, the Photon absorbed dose (Spleen) was 3.84E−03 mGy/MBq and the “Total Absorbed Doses” value (Spleen) was 5.98E−03 mGy/MBq. For the same compound, the Alpha absorbed dose (Stomach Wall) was 0.00E+00 mGy/MBq, the Beta absorbed dose (Stomach Wall) was 6.83E−03 mGy/MBq and the Photon absorbed dose (Stomach Wall) was 4.19E−03 mGy/MBq. For the same compound, the “Total Absorbed Doses” value (Stomach Wall) was 1.10E−02 mGy/MBq, the Alpha absorbed dose (Thymus) was 0.00E+00 mGy/MBq and the Beta absorbed dose (Thymus) was 0.00E+00 mGy/MBq. The Photon absorbed dose (Thymus) was 3.85E−04 mGy/MBq, the “Total Absorbed Doses” value (Thymus) was 3.85E−04 mGy/MBq and the Alpha absorbed dose (Thyroid) was 0.00E+00 mGy/MBq. The Beta absorbed dose (Thyroid) was 0.00E+00 mGy/MBq, the Photon absorbed dose (Thyroid) was 9.46E−05 mGy/MBq and the “Total Absorbed Doses” value (Thyroid) was 9.46E−05 mGy/MBq. It also gave an Alpha absorbed dose (Total Body) of 0.00E+00 mGy/MBq, a Beta absorbed dose (Total Body) of 7.50E−04 mGy/MBq and a Photon absorbed dose (Total Body) of 8.71E−04 mGy/MBq. For the same compound, the “Total Absorbed Doses” value (Total Body) was 1.62E−03 mGy/MBq, the Alpha absorbed dose (ULI Wall) was 0.00E+00 mGy/MBq and the Beta absorbed dose (ULI Wall) was 0.00E+00 mGy/MBq. For the same compound, the Photon absorbed dose (ULI Wall) was 2.34E−03 mGy/MBq, the “Total Absorbed Doses” value (ULI Wall) was 2.34E−03 mGy/MBq and the Alpha absorbed dose (Urinary Bladder Wall) was 0.00E+00 mGy/MBq. For the same compound, the Beta absorbed dose (Urinary Bladder Wall) was 0.00E+00 mGy/MBq, the Photon absorbed dose (Urinary Bladder Wall) was 3.65E−04 mGy/MBq and the “Total Absorbed Doses” value (Urinary Bladder Wall) was 3.65E−04 mGy/MBq. The Alpha absorbed dose (Uterus) was 0.00E+00 mGy/MBq, the Beta absorbed dose (Uterus) was 0.00E+00 mGy/MBq and the Photon absorbed dose (Uterus) was 1.06E−03 mGy/MBq. The “Total Absorbed Doses” value (Uterus) was 1.06E−03 mGy/MBq, the “absorbed dose, pancreas (highest organ value)” value [1] was 1.03E-01 mGy/MBq and the “effective dose (whole-body)” value [1] was 5.73E-03 mSv/MBq. For the same compound, the “absorbed dose in the pancreas” value (injected dose of 150 MBq) was 0.015 Gy.
